# The supplement of paper PMC8728848
# The list shows a part of the results.
# Experiments:
# Assay in all cases: glycan array binding signal (z-score within array); higher = stronger binding
# Conditions in all cases: glycan notation: IUPAC condensed, linker removed
# [1] = biological target: GlcNAc(b1-4)GlcNAc(b1-4)GlcNAc(b1-4)GlcNAc(b1-4)GlcNAc
# How it was run: (§1)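 Columns mapping to the same glycan were averaged after glycan names were converted to IUPAC-condensed notation. The data come from 3228 arrays in the Consortium for Functional Glycomics database, limited to those with an available protein sequence. Binding is reported as a within-array Z-score averaged across arrays of one protein sequence and across linkers.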
# [2] = biological target: GlcNAc(b1-4)GlcNAc(b1-4)GlcNAc(b1-4)GlcNAc(b1-4)GlcNAc(b1-4)GlcNAc
# How it was run: as §1
# [3] = biological target: GlcNAc(b1-4)[GlcNAc(b1-6)]GalNAc
# How it was run: as §1
# [4] = biological target: GlcNAc(b1-6)Gal(b1-4)GlcNAc
# How it was run: as §1
# [5] = biological target: GlcNAc(b1-6)GalNAc
# How it was run: as §1
# [6] = biological target: GlcNAc6S(b1-3)Gal(b1-4)GlcNAc
# How it was run: as §1
# [7] = biological target: Kdn(a2-3)Gal(b1-3)GalNAc
# How it was run: as §1
# [8] = biological target: Kdn(a2-3)Gal(b1-3)GlcNAc
# How it was run: as §1
# [9] = biological target: Kdn(a2-3)Gal(b1-4)Glc
# How it was run: as §1
# [10] = biological target: Kdn(a2-3)Gal(b1-4)GlcNAc
# How it was run: as §1
# [11] = biological target: Kdn(a2-3)Gal(b1-4)[Fuc(a1-3)]GlcNAc
# How it was run: as §1
# [12] = biological target: Kdn(a2-6)Gal(b1-4)GlcNAc
# How it was run: as §1
# [13] = biological target: Man(a1-2)Man(a1-2)Man(a1-3)Man
# How it was run: as §1
# [14] = biological target: Man(a1-2)Man(a1-2)Man(a1-6)[Man(a1-3)]Man
# How it was run: as §1
# [15] = biological target: Man(a1-2)Man(a1-3)Man
# How it was run: as §1
# [16] = biological target: Man(a1-2)Man(a1-3)[Man(a1-2)Man(a1-6)]Man
# How it was run: as §1
# [17] = biological target: Man(a1-2)Man(a1-3)[Man(a1-2)Man(a1-6)]Man(a1-6)[Man(a1-2)Man(a1-2)Man(a1-3)]Man
# How it was run: as §1
# [18] = biological target: Man(a1-2)Man(a1-3)[Man(a1-2)Man(a1-6)]Man(a1-6)[Man(a1-2)Man(a1-2)Man(a1-3)]Man(b1-4)GlcNAc(b1-4)GlcNAc
# How it was run: as §1
# [19] = biological target: Man(a1-2)Man(a1-3)[Man(a1-6)]Man(a1-6)[Man(a1-2)Man(a1-3)]Man(b1-4)GlcNAc(b1-4)GlcNAc
# How it was run: as §1
# [20] = biological target: Man(a1-2)Man(a1-6)[Man(a1-3)]Man(a1-6)[Man(a1-2)Man(a1-2)Man(a1-3)]Man
# How it was run: as §1
# [21] = biological target: Man(a1-2)Man(a1-6)[Man(a1-3)]Man(a1-6)[Man(a1-2)Man(a1-2)Man(a1-3)]Man(b1-4)GlcNAc(b1-4)GlcNAc
# How it was run: as §1
# [22] = biological target: Man(a1-3)[Man(a1-6)]Man
# How it was run: as §1
# [23] = biological target: Man(a1-3)[Man(a1-6)]Man(a1-6)[Man(a1-2)Man(a1-3)]Man(b1-4)GlcNAc(b1-4)GlcNAc
# How it was run: as §1
# [24] = biological target: Man(a1-3)[Man(a1-6)]Man(a1-6)[Man(a1-3)]Man
# How it was run: as §1
# [25] = biological target: Man(a1-3)[Man(a1-6)]Man(a1-6)[Man(a1-3)]Man(b1-4)GlcNAc(b1-4)GlcNAc
# How it was run: as §1
# [26] = biological target: Man(a1-3)[Man(a1-6)]Man(b1-4)GlcNAc(b1-4)GlcNAc
# How it was run: as §1
# [27] = biological target: Man(a1-3)[Man(a1-6)]Man(b1-4)GlcNAc(b1-4)[Fuc(a1-6)]GlcNAc
# How it was run: as §1
# [28] = biological target: Man(a1-6)Man
# How it was run: as §1
# [29] = biological target: Man(b1-4)GlcNAc
# How it was run: as §1
# [30] = biological target: MurNAc(b1-4)GlcNAc
# How it was run: as §1
# [31] = biological target: Neu5Ac(a2-3)Gal
# How it was run: as §1
# [32] = biological target: Neu5Ac(a2-3)Gal(b1-3)GalNAc
# How it was run: as §1
# [33] = biological target: Neu5Ac(a2-3)Gal(b1-3)GalNAc(b1-3)Gal(a1-4)Gal(b1-4)Glc
# How it was run: as §1
# [34] = biological target: Neu5Ac(a2-3)Gal(b1-3)GalNAc(b1-4)Gal(b1-4)Glc
# How it was run: as §1
# [35] = biological target: Neu5Ac(a2-3)Gal(b1-3)GalNAc(b1-4)[Neu5Ac(a2-3)]Gal(b1-4)Glc
# How it was run: as §1
# [36] = biological target: Neu5Ac(a2-3)Gal(b1-3)GalNAc(b1-4)[Neu5Ac(a2-8)Neu5Ac(a2-3)]Gal(b1-4)Glc
# How it was run: as §1
# [37] = biological target: Neu5Ac(a2-3)Gal(b1-3)GalNAc6S
# How it was run: as §1
# [38] = biological target: Neu5Ac(a2-3)Gal(b1-3)GlcNAc
# How it was run: as §1
# [39] = biological target: Neu5Ac(a2-3)Gal(b1-3)GlcNAc(b1-2)Man
# How it was run: as §1
# [40] = biological target: Neu5Ac(a2-3)Gal(b1-3)GlcNAc(b1-2)Man(a1-3)[GlcNAc(b1-4)][Neu5Ac(a2-3)Gal(b1-3)GlcNAc(b1-2)Man(a1-6)]Man(b1-4)GlcNAc(b1-4)GlcNAc
# How it was run: as §1
# [41] = biological target: Neu5Ac(a2-3)Gal(b1-3)GlcNAc(b1-2)Man(a1-3)[Neu5Ac(a2-3)Gal(b1-3)GlcNAc(b1-2)Man(a1-6)]Man(b1-4)GlcNAc(b1-4)GlcNAc
# How it was run: as §1
# [42] = biological target: Neu5Ac(a2-3)Gal(b1-3)GlcNAc(b1-2)[Neu5Ac(a2-3)Gal(b1-3)GlcNAc(b1-4)]Man(a1-6)[Neu5Ac(a2-3)Gal(b1-3)GlcNAc(b1-2)Man(a1-3)]Man(b1-4)GlcNAc(b1-4)GlcNAc
# How it was run: as §1
# [43] = biological target: Neu5Ac(a2-3)Gal(b1-3)GlcNAc(b1-3)Gal(b1-3)GlcNAc
# How it was run: as §1
# [44] = biological target: Neu5Ac(a2-3)Gal(b1-3)GlcNAc(b1-3)Gal(b1-4)GlcNAc
# How it was run: as §1
# [45] = biological target: Neu5Ac(a2-3)Gal(b1-3)GlcNAc(b1-3)GalNAc
# How it was run: as §1
binder,measurement,setting,value
"CD34 (Homo sapiens), P28906 (protein) MGSSHHHHHHSSGLVPRGSHMSTSLATSPTKPYTSSSPILSDIKAEIKCSGIREVKLTQGICLEQNKTSSCAEFKKDRGEGLARVLCGEEQADADAGAQVCSLLLAQSEVRPQCLLLVLANRTEISSKLQLMKKHQSDLKKLGILDFTEQDVASHQSYSQKT",glycan array binding signal (z-score),[1],0.087
same,glycan array binding signal (z-score),[2],-0.038
same,glycan array binding signal (z-score),[3],-0.694
same,glycan array binding signal (z-score),[4],-0.009
same,glycan array binding signal (z-score),[5],0.004
same,glycan array binding signal (z-score),[6],0.83
same,glycan array binding signal (z-score),[7],-0.107
same,glycan array binding signal (z-score),[8],0.092
same,glycan array binding signal (z-score),[9],0.635
same,glycan array binding signal (z-score),[10],-0.524
same,glycan array binding signal (z-score),[11],0.081
same,glycan array binding signal (z-score),[12],-0.352
same,glycan array binding signal (z-score),[13],-0.939
same,glycan array binding signal (z-score),[14],-1.17
same,glycan array binding signal (z-score),[15],-0.525
same,glycan array binding signal (z-score),[16],-0.762
same,glycan array binding signal (z-score),[17],0.583
same,glycan array binding signal (z-score),[18],0.778
same,glycan array binding signal (z-score),[19],-0.726
same,glycan array binding signal (z-score),[20],-1.21
same,glycan array binding signal (z-score),[21],-0.031
same,glycan array binding signal (z-score),[22],1.36
same,glycan array binding signal (z-score),[23],0.6
same,glycan array binding signal (z-score),[24],0.422
same,glycan array binding signal (z-score),[25],-0.335
same,glycan array binding signal (z-score),[26],-0.007
same,glycan array binding signal (z-score),[27],0.466
same,glycan array binding signal (z-score),[28],0.933
same,glycan array binding signal (z-score),[29],-0.398
same,glycan array binding signal (z-score),[30],1.79
same,glycan array binding signal (z-score),[31],-0.213
same,glycan array binding signal (z-score),[32],0.103
same,glycan array binding signal (z-score),[33],0.573
same,glycan array binding signal (z-score),[34],-0.559
same,glycan array binding signal (z-score),[35],2.63
same,glycan array binding signal (z-score),[36],-1.04
same,glycan array binding signal (z-score),[37],-0.139
same,glycan array binding signal (z-score),[38],-0.115
same,glycan array binding signal (z-score),[39],-0.207
same,glycan array binding signal (z-score),[40],-0.083
same,glycan array binding signal (z-score),[41],2.09
same,glycan array binding signal (z-score),[42],0.388
same,glycan array binding signal (z-score),[43],-0.752
same,glycan array binding signal (z-score),[44],-0.691
same,glycan array binding signal (z-score),[45],-0.383

# At a glance, some entries already given.
binder,measurement,setting,value
"CD34 (Homo sapiens), P28906 (protein) MGSSHHHHHHSSGLVPRGSHMSTSLATSPTKPYTSSSPILSDIKAEIKCSGIREVKLTQGICLEQNKTSSCAEFKKDRGEGLARVLCGEEQADADAGAQVCSLLLAQSEVRPQCLLLVLANRTEISSKLQLMKKHQSDLKKLGILDFTEQDVASHQSYSQKT",glycan array binding signal (z-score),[3],-0.694
same,glycan array binding signal (z-score),[4],-0.009
